Laboratory results: the supplement of paper PMC8728848
This is one part of the list.

Columns and labels:
Test in all cases: glycan array binding signal (z-score within array); higher = stronger binding
Conditions in all cases: glycan notation: IUPAC condensed, linker removed
[1] = target: Gal(b1-4)GlcNAc(b1-3)Gal(b1-4)GlcNAc(b1-3)Gal(b1-4)GlcNAc(b1-3)Gal(b1-4)GlcNAc(b1-2)Man(a1-3)[Gal(b1-4)GlcNAc(b1-3)Gal(b1-4)GlcNAc(b1-3)Gal(b1-4)GlcNAc(b1-3)Gal(b1-4)GlcNAc(b1-2)Man(a1-6)]Man(b1-4)GlcNAc(b1-4)[Fuc(a1-6)]GlcNAc
Method in brief: (§1)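 From the Consortium for Functional Glycomics database, 3228 arrays were curated, keeping only those whose protein sequence was available. Binding is given as a within-array Z-score averaged across arrays sharing a protein sequence and across linkers. Negative Z-scores can be read as non-binding.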

[2] = target: Gal(b1-4)GlcNAc(b1-3)Gal(b1-4)GlcNAc(b1-3)Gal(b1-4)GlcNAc(b1-3)Gal(b1-4)GlcNAc(b1-2)[Gal(b1-4)GlcNAc(b1-3)Gal(b1-4)GlcNAc(b1-3)Gal(b1-4)GlcNAc(b1-3)Gal(b1-4)GlcNAc(b1-6)]Man(a1-6)[Gal(b1-4)GlcNAc(b1-3)Gal(b1-4)GlcNAc(b1-3)Gal(b1-4)GlcNAc(b1-3)Gal(b1-4)GlcNAc(b1-2)Man(a1-3)]Man(b1-4)GlcNAc(b1-4)[Fuc(a1-6)]GlcNAc
Method in brief: as §1

[3] = target: Gal(b1-4)GlcNAc(b1-3)Gal(b1-4)GlcNAc(b1-3)Gal(b1-4)GlcNAc(b1-3)Gal(b1-4)GlcNAc(b1-3)Gal(b1-4)GlcNAc(b1-2)Man(a1-3)[Gal(b1-4)GlcNAc(b1-3)Gal(b1-4)GlcNAc(b1-3)Gal(b1-4)GlcNAc(b1-3)Gal(b1-4)GlcNAc(b1-3)Gal(b1-4)GlcNAc(b1-2)Man(a1-6)]Man(b1-4)GlcNAc(b1-4)GlcNAc
Method in brief: as §1

[4] = target: Gal(b1-4)GlcNAc(b1-3)Gal(b1-4)GlcNAc(b1-3)Gal(b1-4)GlcNAc(b1-3)Gal(b1-4)GlcNAc(b1-3)Gal(b1-4)GlcNAc(b1-2)Man(a1-3)[Gal(b1-4)GlcNAc(b1-3)Gal(b1-4)GlcNAc(b1-3)Gal(b1-4)GlcNAc(b1-3)Gal(b1-4)GlcNAc(b1-3)Gal(b1-4)GlcNAc(b1-2)Man(a1-6)]Man(b1-4)GlcNAc(b1-4)[Fuc(a1-6)]GlcNAc
Method in brief: as §1

[5] = target: Gal(b1-4)GlcNAc(b1-3)Gal(b1-4)GlcNAc(b1-3)Gal(b1-4)GlcNAc(b1-3)Gal(b1-4)GlcNAc(b1-3)Gal(b1-4)GlcNAc(b1-2)[Gal(b1-4)GlcNAc(b1-3)Gal(b1-4)GlcNAc(b1-3)Gal(b1-4)GlcNAc(b1-3)Gal(b1-4)GlcNAc(b1-3)Gal(b1-4)GlcNAc(b1-6)]Man(a1-6)[Gal(b1-4)GlcNAc(b1-3)Gal(b1-4)GlcNAc(b1-3)Gal(b1-4)GlcNAc(b1-3)Gal(b1-4)GlcNAc(b1-3)Gal(b1-4)GlcNAc(b1-2)Man(a1-3)]Man(b1-4)GlcNAc(b1-4)[Fuc(a1-6)]GlcNAc
Method in brief: as §1

[6] = target: Gal(b1-4)GlcNAc(b1-3)Gal(b1-4)GlcNAc(b1-3)Gal(b1-4)GlcNAc(b1-3)Gal(b1-4)GlcNAc(b1-3)Gal(b1-4)GlcNAc(b1-3)Gal(b1-4)GlcNAc(b1-2)Man(a1-3)[Gal(b1-4)GlcNAc(b1-3)Gal(b1-4)GlcNAc(b1-3)Gal(b1-4)GlcNAc(b1-3)Gal(b1-4)GlcNAc(b1-3)Gal(b1-4)GlcNAc(b1-3)Gal(b1-4)GlcNAc(b1-2)Man(a1-6)]Man(b1-4)GlcNAc(b1-4)GlcNAc
Method in brief: as §1

[7] = target: Gal(b1-4)GlcNAc(b1-3)Gal(b1-4)GlcNAc(b1-3)GalNAc
Method in brief: as §1

[8] = target: Gal(b1-4)GlcNAc(b1-3)Gal(b1-4)GlcNAc(b1-3)[Gal(b1-4)GlcNAc(b1-3)Gal(b1-4)GlcNAc(b1-6)]GalNAc
Method in brief: as §1

[9] = target: Gal(b1-4)GlcNAc(b1-3)Gal(b1-4)GlcNAc(b1-6)[Gal(b1-3)]GalNAc
Method in brief: as §1

[10] = target: Gal(b1-4)GlcNAc(b1-3)Gal(b1-4)[Fuc(a1-3)]GlcNAc(b1-3)Gal(b1-4)[Fuc(a1-3)]GlcNAc
Method in brief: as §1

[11] = target: Gal(b1-4)GlcNAc(b1-3)GalNAc
Method in brief: as §1

[12] = target: Gal(b1-4)GlcNAc(b1-3)[Fuc(a1-3)GlcNAc(b1-6)]Gal(b1-4)Glc
Method in brief: as §1

[13] = target: Gal(b1-4)GlcNAc(b1-3)[Gal(b1-4)GlcNAc(b1-6)]Gal(b1-4)GlcNAc
Method in brief: as §1

[14] = target: Gal(b1-4)GlcNAc(b1-3)[GlcNAc(b1-6)]Gal(b1-4)GlcNAc
Method in brief: as §1

[15] = target: Gal(b1-4)GlcNAc(b1-6)Gal(b1-4)GlcNAc
Method in brief: as §1

[16] = target: Gal(b1-4)GlcNAc(b1-6)GalNAc
Method in brief: as §1

[17] = target: Gal(b1-4)GlcNAc(b1-6)[Gal(b1-3)]GalNAc
Method in brief: as §1

[18] = target: Gal(b1-4)GlcNAc(b1-6)[Gal(b1-4)GlcNAc(b1-3)]GalNAc
Method in brief: as §1

[19] = target: Gal(b1-4)GlcNAc6P
Method in brief: as §1

[20] = target: Gal(b1-6)Gal
Method in brief: as §1

[21] = target: Gal3S(b1-3)GalNAc
Method in brief: as §1

[22] = target: Gal3S(b1-3)GlcNAc
Method in brief: as §1

[23] = target: Gal3S(b1-3)[Fuc(a1-4)]GlcNAc
Method in brief: as §1

[24] = target: Gal3S(b1-4)Glc
Method in brief: as §1

[25] = target: Gal3S(b1-4)Glc6S
Method in brief: as §1

[26] = target: Gal3S(b1-4)GlcNAc
Method in brief: as §1

[27] = target: Gal3S(b1-4)[Fuc(a1-3)]Glc6S
Method in brief: as §1

[28] = target: Gal3S(b1-4)[Fuc(a1-3)]GlcNAc
Method in brief: as §1

[29] = target: Gal3S(b1-4)[Fuc(a1-3)]GlcNAc6S
Method in brief: as §1

[30] = target: Gal3S4S(b1-4)GlcNAc
Method in brief: as §1

[31] = target: Gal3S6S(b1-4)GlcNAc
Method in brief: as §1

[32] = target: Gal3S6S(b1-4)GlcNAc6S
Method in brief: as §1

[33] = target: Gal4S(b1-4)GlcNAc
Method in brief: as §1

[34] = target: Gal4S6S(b1-4)GlcNAc
Method in brief: as §1

[35] = target: Gal6P(b1-4)GlcNAc
Method in brief: as §1

[36] = target: Gal6S(b1-3)GlcNAc
Method in brief: as §1

[37] = target: Gal6S(b1-3)GlcNAc6S
Method in brief: as §1

[38] = target: Gal6S(b1-4)Glc
Method in brief: as §1

B1: truncCC1G-10077 (Coprinopsis cinerea) (protein)
chain: MHHHHHHHHPLPSPGPGWVLIQNGGTGKFLCSTPSGDIGTADGPETVYDYSVQWRFIQREYTGVYHVVNRATGAYLRQIGTSMPSIGLAEENDDELKDWWMLETYDNSEIGLASIISRWTGNVLDHYGGVSVQALDNNTENSYRSWAIIPARDWLTSFSLVNGQGGLCLAAQYAREETRLSTTANVNDFHAQWVFRKPSGSSGYTIQNKYNNHYVGGTSARWELVVCCNKYFGIRNTSTQKYLAIEDGQVTFQDQDMTDRKQCWELCSGRATDTSGNDYDLIYMDDDLLEVMIPWVGDKQGDLKHYIEKRATKKPPKDKGGWQLPAAGLIKKPKFNDIRQLLQELIEQWEWDVVNEEREQIQTLVSIDEAEARRLLGRRPHPDIVAAYQRSRSSTLFRIDRQGYFNIAGDRYVNIQGQYGDDSYFHIALPVGVRFGREQIRRFLRDSLDRSTSVTITPTTCKPPSGGPDYNRDPDSDGDNSWIKWTIAVVGTSAIKHSEL
glycan array binding signal (z-score) [1]: 0.374 | glycan array binding signal (z-score) [2]: 0.85 | glycan array binding signal (z-score) [3]: -0.417 | glycan array binding signal (z-score) [4]: 0.033 | glycan array binding signal (z-score) [5]: 1.26 | glycan array binding signal (z-score) [6]: -0.275 | glycan array binding signal (z-score) [7]: -0.305 | glycan array binding signal (z-score) [8]: 0.535 | glycan array binding signal (z-score) [9]: 1.52 | glycan array binding signal (z-score) [10]: -0.221 | glycan array binding signal (z-score) [11]: -0.54 | glycan array binding signal (z-score) [12]: -1.18 | glycan array binding signal (z-score) [13]: -0.821 | glycan array binding signal (z-score) [14]: -1.04 | glycan array binding signal (z-score) [15]: -0.211 | glycan array binding signal (z-score) [16]: 0.72 | glycan array binding signal (z-score) [17]: 0.232 | glycan array binding signal (z-score) [18]: 0.073 | glycan array binding signal (z-score) [19]: -0.197 | glycan array binding signal (z-score) [20]: 1.23 | glycan array binding signal (z-score) [21]: -1.1 | glycan array binding signal (z-score) [22]: -0.706 | glycan array binding signal (z-score) [23]: 1.32 | glycan array binding signal (z-score) [24]: 0.989 | glycan array binding signal (z-score) [25]: 0.704 | glycan array binding signal (z-score) [26]: -0.212 | glycan array binding signal (z-score) [27]: 1.19 | glycan array binding signal (z-score) [28]: -0.266 | glycan array binding signal (z-score) [29]: 0.155 | glycan array binding signal (z-score) [30]: -0.524 | glycan array binding signal (z-score) [31]: 2.48 | glycan array binding signal (z-score) [32]: 1.37 | glycan array binding signal (z-score) [33]: -0.652 | glycan array binding signal (z-score) [34]: -0.428 | glycan array binding signal (z-score) [35]: -0.952 | glycan array binding signal (z-score) [36]: -0.707 | glycan array binding signal (z-score) [37]: 0.57 | glycan array binding signal (z-score) [38]: -0.548
